Results are given in words; binding and its absence hold for the method and conditions named. Binding seen in cells or lysates may run through a third protein. Some binding calls cover weakened binding; strength is not graded here. Where a sequence is shown, tags or fusion partners need not be part of it.
Target: T1, TXN1-6×His (thioredoxin 1) (UniProt P10599)
T1 sequence: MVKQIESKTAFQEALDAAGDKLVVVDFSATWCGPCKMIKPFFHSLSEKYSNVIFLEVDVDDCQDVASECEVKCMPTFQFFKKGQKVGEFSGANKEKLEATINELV
Test: cross-linking; live HEK293T cells transfected with the His-tagged bait, 0.5 mM BVSB or PDES (1 h at 4°C and 2 h at RT, in PBS); lysis in 8 M urea, Ni-NTA, trypsin, SCX fractions; cross-linked peptides identified by LC-MS/MS (pLink2)

Amino acid sequences for entries named in this document (tags omitted).
UniProt P53350: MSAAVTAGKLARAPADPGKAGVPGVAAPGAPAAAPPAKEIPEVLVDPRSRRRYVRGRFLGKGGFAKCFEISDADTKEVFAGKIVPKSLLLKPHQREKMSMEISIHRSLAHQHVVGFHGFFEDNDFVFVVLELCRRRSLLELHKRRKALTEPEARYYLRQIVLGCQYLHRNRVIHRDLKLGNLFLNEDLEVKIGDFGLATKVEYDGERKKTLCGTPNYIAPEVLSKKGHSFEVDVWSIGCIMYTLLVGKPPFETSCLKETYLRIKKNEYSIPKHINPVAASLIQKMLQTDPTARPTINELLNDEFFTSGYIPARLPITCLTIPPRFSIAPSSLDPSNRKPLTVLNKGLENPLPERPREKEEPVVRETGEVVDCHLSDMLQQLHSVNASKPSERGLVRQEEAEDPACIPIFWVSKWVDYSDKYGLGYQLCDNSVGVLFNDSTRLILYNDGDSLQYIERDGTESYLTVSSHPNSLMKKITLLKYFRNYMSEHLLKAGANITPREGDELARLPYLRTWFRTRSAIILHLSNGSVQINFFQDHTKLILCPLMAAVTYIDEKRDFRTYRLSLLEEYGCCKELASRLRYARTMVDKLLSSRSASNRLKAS

“PLK1 (from UniProt P53350 1-603) (enzyme)” was tested, and the binding was “binds”.
